Measurements from paper PMC10541902.
These are yes or no findings as the source states them, for the method shown. Binding seen in cells or lysates may run through a third protein. Binding calls can cover weak binding; strength is not graded here.

Amino acid sequences for entries named in this document (tags omitted). A change or cut given only in a name is not applied to a line headed by its entry.
UniProt Q9CYV5: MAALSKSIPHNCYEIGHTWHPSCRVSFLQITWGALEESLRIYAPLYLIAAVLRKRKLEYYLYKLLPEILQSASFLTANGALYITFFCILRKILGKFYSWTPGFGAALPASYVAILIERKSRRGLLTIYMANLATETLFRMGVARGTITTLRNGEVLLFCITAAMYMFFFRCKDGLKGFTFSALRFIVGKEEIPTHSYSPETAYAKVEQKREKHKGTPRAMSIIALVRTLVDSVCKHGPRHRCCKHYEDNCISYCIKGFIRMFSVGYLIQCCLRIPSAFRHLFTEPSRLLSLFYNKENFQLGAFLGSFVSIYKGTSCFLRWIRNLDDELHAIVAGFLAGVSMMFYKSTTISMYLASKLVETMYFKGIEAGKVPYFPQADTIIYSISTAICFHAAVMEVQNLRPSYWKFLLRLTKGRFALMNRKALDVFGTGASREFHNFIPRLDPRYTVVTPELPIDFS

Target: GST-TMEM135 fusion protein (mouse) (UniProt Q9CYV5)
Test: pull-down; 5 ug GST-TMEM135 on glutathione agarose beads added to brown adipocyte RIPA lysate diluted with an equal volume of detergent-free buffer (10% glycerol, 1 mM DTT in PBS), 4 °C overnight; washed four times with TBS; GST alone beads as control; only the target purified

- binding: binds
B1: A-kinase anchor protein 1 (AKAP1), endogenous in brown adipocytes (protein, UniProt O08715-1 30-857)
chain: KDRLSSSDKQVETLKVGPAIKDRRLSEEACPGVLSVAPTVTQPPGREEQRCVDKPSTEPLALPRTRQVRRRSESSGNLPSVADTRSQPGPCRDEIAKVELSLMGDKAKSIPLGCPLLPKDASFPYEAVERCKQESALGKTPGRGWPSPYAASGEKARETGGTEGTGDAVLGENVSEEGLLSQECVSEVEKSEFPILAPGGGEGEEVSHGPPQVAELLKKEEYIVGKLPSSFVEPVHSEPVKDEDALEPQVKGSSNTSDRDLAGELDKDETVPENDQIKQAAFQLISQVILEATEEFRATTVGKTVAQVHPTSATQPKGKEESCVPASQETSLGQDTSDPASTRTGATASPSAEALPPKTYVSCLSSPLSGPTKDQKPKNSAHHISLAPCPPPVTPQRQSLEGASNPRGDDNFVACMANNSQSVLSVSSLGQCSDPVSTSGLEDSCTETISSSGDKAMTPPLPVSTQPFSNGVLKEELSDLGTEDGWTMDTEADHSGGSDGNSMDSVDSCCGLTKPDSPQSVQAGSNPKKVDLIIWEIEVPKHLVGRLIGKQGRYVSFLKQTSGAKIYISTLPYTQNIQICHIEGSQHHVDKALNLIGKKFKELNLTNIYAPPLPSLALPSLPMTSWLMLPDGITVEVIVVNQVNAGHLFVQQHTHPTFHALRSLDQQMYLCYSQPGIPTLPTPVEITVICAAPGADGAWWRAQVVASYEETNEVEIRYVDYGGYKRVKVDVLRQIRSDFVTLPFQGAEVLLDSVVPLSDDDHFSPEADAAMSEMTGNTALLAQVTSYSATGLPLIQLWSVVGDEVVLINRSLVERGLAQWVDSYYASL
